Among the data in article PMC9529144 are binding values, retold here.

These are yes or no findings as the source states them, for the method shown. In cells and extracts the contact can be indirect. Some results given as binding are weak or reduced against the parent protein; the word gives no strength. Tags and fused reporters may be left off the sequences shown.

In assay [1] the target is T1, DEK isoform-1 (full-length DEK), Flag- or Myc-tagged (human), P35659.
T1 chain: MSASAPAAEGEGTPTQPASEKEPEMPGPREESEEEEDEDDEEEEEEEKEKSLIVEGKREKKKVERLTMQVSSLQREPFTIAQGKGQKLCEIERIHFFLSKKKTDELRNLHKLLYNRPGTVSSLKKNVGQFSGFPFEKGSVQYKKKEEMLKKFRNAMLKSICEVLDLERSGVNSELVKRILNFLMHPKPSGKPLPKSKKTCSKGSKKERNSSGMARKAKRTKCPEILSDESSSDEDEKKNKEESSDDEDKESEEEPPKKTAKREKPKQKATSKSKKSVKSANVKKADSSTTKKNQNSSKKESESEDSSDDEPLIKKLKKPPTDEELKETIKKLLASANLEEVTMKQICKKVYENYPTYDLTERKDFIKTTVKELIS
In words: co-IP; 293T cells co-transfected with alternatively tagged isoforms (Flag and Myc); Universal Magnetic Co-IP Kit (Active Motif), 2 μg anti-Flag M2 antibody; anti-Flag and anti-Myc antibodies used. Conditions: remark: other sources report otherwise.

The target of assay [2] is T2, DEK isoform-2 (short isoform of DEK lacking residues 49-82), Flag- or Myc-tagged (human) (UniProt P35659).
T2 sequence: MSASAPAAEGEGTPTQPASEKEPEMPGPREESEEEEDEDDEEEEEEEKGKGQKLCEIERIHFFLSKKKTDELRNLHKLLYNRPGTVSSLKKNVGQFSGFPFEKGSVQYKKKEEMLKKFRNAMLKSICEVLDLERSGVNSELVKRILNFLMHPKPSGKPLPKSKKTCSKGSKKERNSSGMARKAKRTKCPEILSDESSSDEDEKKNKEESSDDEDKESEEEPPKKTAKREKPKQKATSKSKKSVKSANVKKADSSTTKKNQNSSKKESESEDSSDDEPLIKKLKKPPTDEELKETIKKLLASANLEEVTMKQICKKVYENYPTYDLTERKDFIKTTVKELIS
The assay is described as above.

B1: DEK isoform-1 (full-length DEK), Flag- or Myc-tagged, P35659-1 1-375 (protein)
chain: MSASAPAAEGEGTPTQPASEKEPEMPGPREESEEEEDEDDEEEEEEEKEKSLIVEGKREKKKVERLTMQVSSLQREPFTIAQGKGQKLCEIERIHFFLSKKKTDELRNLHKLLYNRPGTVSSLKKNVGQFSGFPFEKGSVQYKKKEEMLKKFRNAMLKSICEVLDLERSGVNSELVKRILNFLMHPKPSGKPLPKSKKTCSKGSKKERNSSGMARKAKRTKCPEILSDESSSDEDEKKNKEESSDDEDKESEEEPPKKTAKREKPKQKATSKSKKSVKSANVKKADSSTTKKNQNSSKKESESEDSSDDEPLIKKLKKPPTDEELKETIKKLLASANLEEVTMKQICKKVYENYPTYDLTERKDFIKTTVKELIS
For the molecule B1, the binding result in assay [1] is on record as “binds”.

B2: DEK isoform-1 (full-length DEK), Flag- or Myc-tagged (protein, UniProt P35659-1 1-375)
chain: MSASAPAAEGEGTPTQPASEKEPEMPGPREESEEEEDEDDEEEEEEEKEKSLIVEGKREKKKVERLTMQVSSLQREPFTIAQGKGQKLCEIERIHFFLSKKKTDELRNLHKLLYNRPGTVSSLKKNVGQFSGFPFEKGSVQYKKKEEMLKKFRNAMLKSICEVLDLERSGVNSELVKRILNFLMHPKPSGKPLPKSKKTCSKGSKKERNSSGMARKAKRTKCPEILSDESSSDEDEKKNKEESSDDEDKESEEEPPKKTAKREKPKQKATSKSKKSVKSANVKKADSSTTKKNQNSSKKESESEDSSDDEPLIKKLKKPPTDEELKETIKKLLASANLEEVTMKQICKKVYENYPTYDLTERKDFIKTTVKELIS
With B2, in assay [2], the binding entry is on record as “binds weakly”.

B3: DEK isoform-2 (short isoform of DEK lacking residues 49-82), Flag- or Myc-tagged (protein, UniProt P35659-2 1-341)
chain: MSASAPAAEGEGTPTQPASEKEPEMPGPREESEEEEDEDDEEEEEEEKGKGQKLCEIERIHFFLSKKKTDELRNLHKLLYNRPGTVSSLKKNVGQFSGFPFEKGSVQYKKKEEMLKKFRNAMLKSICEVLDLERSGVNSELVKRILNFLMHPKPSGKPLPKSKKTCSKGSKKERNSSGMARKAKRTKCPEILSDESSSDEDEKKNKEESSDDEDKESEEEPPKKTAKREKPKQKATSKSKKSVKSANVKKADSSTTKKNQNSSKKESESEDSSDDEPLIKKLKKPPTDEELKETIKKLLASANLEEVTMKQICKKVYENYPTYDLTERKDFIKTTVKELIS
With B3, the binding entry in assay [2] was “no binding”.
